{
  "source": "paper PMC7862700",
  "note": "The list shows a part of the results, in another mix than the full data. At the low end of the ranking, values are background and their order means little.",
  "data": [
    {"molecular_target": "SPI1 (UniProt P17947)", "experiment": "DAPPL (digital affinity profiling via proximity ligation, sequencing)", "conditions": "10 mM Tris-HCl pH 7.5, 50 mM NaCl, 1 mM DTT, 4% glycerol, room temperature, 30 min; GST-TFs on glutathione beads, 16-mer random dsDNA library, 0.1% …; high values mean tight binding; double strand, one strand shown; scale: fold enrichment (6-mer frequency, TF over GST control)", "values": [
      {"sequence": "GCTGAG", "binding signal": 0.674},
      {"sequence": "CGCGGA", "binding signal": 0.973},
      {"sequence": "GGTGTC", "binding signal": 0.674},
      {"sequence": "CAGGCA", "binding signal": 0.689},
      {"sequence": "AAGACG", "binding signal": 0.792},
      {"sequence": "GCATGC", "binding signal": 0.827},
      {"sequence": "ACGAGA", "binding signal": 0.622},
      {"sequence": "ACGTCG", "binding signal": 0.604},
      {"sequence": "AGGCTG", "binding signal": 0.642},
      {"sequence": "CGGTGC", "binding signal": 0.677},
      {"sequence": "GGTGAG", "binding signal": 0.357},
      {"sequence": "CGAGGA", "binding signal": 0.589},
      {"sequence": "CAGCAG", "binding signal": 0.787},
      {"sequence": "GGTCGA", "binding signal": 0.718},
      {"sequence": "GGCCGA", "binding signal": 0.722},
      {"sequence": "AGCACC", "binding signal": 0.918},
      {"sequence": "GAACAG", "binding signal": 0.978},
      {"sequence": "GCAACG", "binding signal": 0.881},
      {"sequence": "GAGCCC", "binding signal": 0.725},
      {"sequence": "GTCGGC", "binding signal": 0.388},
      {"sequence": "TGAGAA", "binding signal": 0.748},
      {"sequence": "GCTGGA", "binding signal": 0.785},
      {"sequence": "AGCGTA", "binding signal": 0.85},
      {"sequence": "GTCCAG", "binding signal": 0.676},
      {"sequence": "GGTTAG", "binding signal": 0.783},
      {"sequence": "GTGTGA", "binding signal": 0.627},
      {"sequence": "CGAGGG", "binding signal": 0.731},
      {"sequence": "GATTGT", "binding signal": 0.775},
      {"sequence": "AAGTCG", "binding signal": 0.543},
      {"sequence": "GCGAGC", "binding signal": 0.907},
      {"sequence": "GTTGGG", "binding signal": 0.702},
      {"sequence": "ACGGCG", "binding signal": 0.831},
      {"sequence": "GGATAG", "binding signal": 0.646},
      {"sequence": "AGCCGC", "binding signal": 0.894},
      {"sequence": "GTCGAG", "binding signal": 0.462},
      {"sequence": "GGACCG", "binding signal": 0.752},
      {"sequence": "CTGGGA", "binding signal": 0.913},
      {"sequence": "GGCGAC", "binding signal": 0.772},
      {"sequence": "GTTCGG", "binding signal": 0.6},
      {"sequence": "TCAGGT", "binding signal": 0.865}
    ]}
  ]
}
